Laboratory results taken from article PMC8962469.
Results are given in words; binding and its absence hold for the method and conditions named. In cells and extracts the contact can be indirect. Some results given as binding are weak or reduced against the parent protein; the word gives no strength.

By UniProt entry, the sequences of proteins in these tests, tags left out.
UniProt P51858: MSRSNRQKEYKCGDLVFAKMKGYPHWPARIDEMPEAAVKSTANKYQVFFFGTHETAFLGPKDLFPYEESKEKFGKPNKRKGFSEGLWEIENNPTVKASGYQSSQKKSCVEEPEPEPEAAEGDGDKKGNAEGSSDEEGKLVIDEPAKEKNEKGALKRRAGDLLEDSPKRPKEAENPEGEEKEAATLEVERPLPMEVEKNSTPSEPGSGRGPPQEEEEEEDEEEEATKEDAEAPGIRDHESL
UniProt P05412: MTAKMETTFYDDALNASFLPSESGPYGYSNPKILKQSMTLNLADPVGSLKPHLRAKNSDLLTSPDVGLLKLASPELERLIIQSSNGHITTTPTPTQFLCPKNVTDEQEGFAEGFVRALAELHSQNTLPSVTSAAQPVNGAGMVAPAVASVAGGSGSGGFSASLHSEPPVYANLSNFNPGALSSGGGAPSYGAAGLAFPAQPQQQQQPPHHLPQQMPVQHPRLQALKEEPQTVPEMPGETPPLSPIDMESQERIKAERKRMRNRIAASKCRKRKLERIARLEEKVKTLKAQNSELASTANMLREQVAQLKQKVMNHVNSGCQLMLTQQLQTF

Molecular target: hepatoma-derived growth factor (HDGF) (human (endogenous in SKOV3 and OVCAR3)) (UniProt P51858)
Assay: co-IP; Pierce Co-IP kit; 10 ug specific antibody or IgG added to 5 mg protein overnight at 4 C; SKOV3 and OVCAR3 cells; detected by Western blot

jun proto-oncogene (C-JUN) (from UniProt P05412 1-331)
binding: binds
